These are yes or no findings as the source states them, for the method shown. Binding seen in cells or lysates may run through a third protein. Here binding means that the protein was enriched with, or labelled near, the bait; the list need not be complete.
Molecular target: Rab5A(Q79L)-BirA*-HA-MAO (human) (UniProt P20339)
Experiment: proximity labelling; MitoID: GTPase-BirA*-HA-MAO chimera on mitochondria of transiently transfected HEK293T cells, 50 uM biotin 18 h, streptavidin beads, mass spectrometry, biological triplicates; hits by WD scores and volcano plots against the GDP-locked forms

Protein sequences, listed by entry. Tags and fused reporters are not part of them. Lines headed by an entry give the natural chain unless they say otherwise; changes in a name come on top. Chains listed by the source or under a name are the forms on record and can include a tag or linker.
Rab5A(Q79L)-BirA*-HA-MAO (P20339, form named): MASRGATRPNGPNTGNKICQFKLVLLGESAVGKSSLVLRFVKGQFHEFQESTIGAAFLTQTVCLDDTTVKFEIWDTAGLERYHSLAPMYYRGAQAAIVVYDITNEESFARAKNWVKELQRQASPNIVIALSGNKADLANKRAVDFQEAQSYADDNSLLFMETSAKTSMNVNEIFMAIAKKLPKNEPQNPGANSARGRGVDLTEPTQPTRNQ

Row | Binder | binding
1 | TSC1 (protein, UniProt Q92574 1-1164) MAQQANVGELLAMLDSPMLGVRDDVTAVFKENLNSDRGPMLVNTLVDYYLETSSQPALHILTTLQEPHDKHLLDRINEYVGKAATRLSILSLLGHVIRLQPSWKHKLSQAPLLPSLLKCLKMDTDVVVLTTGVLVLITMLPMIPQSGKQHLLDFFDIFGRLSSWCLKKPGHVAEVYLVHLHASVYALFHRLYGMYPCNFVSFLRSHYSMKENLETFEEVVKPMMEHVRIHPELVTGSKDHELDPRRWKRLETHDVVIECAKISLDPTEASYEDGYSVSHQISARFPHRSADVTTSPYADTQNSYGCATSTPYSTSRLMLLNMPGQLPQTLSSPSTRLITEPPQATLWSPSMVCGMTTPPTSPGNVPPDLSHPYSKVFGTTAGGKGTPLGTPATSPPPAPLCHSDDYVHISLPQATVTPPRKEERMDSARPCLHRQHHLLNDRGSEEPPGSKGSVTLSDLPGFLGDLASEEDSIEKDKEEAAISRELSEITTAEAEPVVPRGGFDSPFYRDSLPGSQRKTHSAASSSQGASVNPEPLHSSLDKLGPDTPKQAFTPIDLPCGSADESPAGDRECQTSLETSIFTPSPCKIPPPTRVGFGSGQPPPYDHLFEVALPKTAHHFVIRKTEELLKKAKGNTEEDGVPSTSPMEVLDRLIQQGADAHSKELNKLPLPSKSVDWTHFGGSPPSDEIRTLRDQLLLLHNQLLYERFKRQQHALRNRRLLRKVIKAAALEEHNAAMKDQLKLQEKDIQMWKVSLQKEQARYNQLQEQRDTMVTKLHSQIRQLQHDREEFYNQSQELQTKLEDCRNMIAELRIELKKANNKVCHTELLLSQVSQKLSNSESVQQQMEFLNRQLLVLGEVNELYLEQLQNKHSDTTKEVEMMKAAYRKELEKNRSHVLQQTQRLDTSQKRILELESHLAKKDHLLLEQKKYLEDVKLQARGQLQAAESRYEAQKRITQVFELEILDLYGRLEKDGLLKKLEEEKAEAAEAAEERLDCCNDGCSDSMVGHNEEASGHNGETKTPRPSSARGSSGSRGGGGSSSSSSELSTPEKPPHQRAGPFSSRWETTMGEASASIPTTVGSLPSSKSFLGMKARELFRNKSESQCDEDGMTSSLSESLKTELGKDLGVEAKIPLNLDGPHPSPPTPDSVGQLHIMDYNETHHEHS | binds
2 | TBC1D15 (protein, UniProt Q8TC07 1-691) MAAAGVVSGKIIYEQEGVYIHSSCGKTNDQDGLISGILRVLEKDAEVIVDWRPLDDALDSSSILYARKDSSSVVEWTQAPKERGHRGSEHLNSYEAEWDMVNTVSFKRKPHTNGDAPSHRNGKSKWSFLFSLTDLKSIKQNKEGMGWSYLVFCLKDDVVLPALHFHQGDSKLLIESLEKYVVLCESPQDKRTLLVNCQNKSLSQSFENLLDEPAYGLIQAGLLDRRKLLWAIHHWKKIKKDPYTATMIGFSKVTNYIFDSLRGSDPSTHQRPPSEMADFLSDAIPGLKINQQEEPGFEVITRIDLGERPVVQRREPVSLEEWTKNIDSEGRILNVDNMKQMIFRGGLSHALRKQAWKFLLGYFPWDSTKEERTQLQKQKTDEYFRMKLQWKSISQEQEKRNSRLRDYRSLIEKDVNRTDRTNKFYEGQDNPGLILLHDILMTYCMYDFDLGYVQGMSDLLSPLLYVMENEVDAFWCFASYMDQMHQNFEEQMQGMKTQLIQLSTLLRLLDSGFCSYLESQDSGYLYFCFRWLLIRFKREFSFLDILRLWEVMWTELPCTNFHLLLCCAILESEKQQIMEKHYGFNEILKHINELSMKIDVEDILCKAEAISLQMVKCKELPQAVCEILGLQGSEVTTPDSDVGEDENVVMTPCPTSAFQSNALPTLSASGARNDSPTQIPVSSDVCRLTPA | binds

From article PMC6639074
